Patent US20260193326A1
These are yes or no findings as the source states them, for the method shown. Binding can be weak; no strength is given.

Key:
Experiment in all cases: SPR, AAV amine-coupled to CM5 chip
[1] = molecular target: AAV9 (adeno-associated virus serotype 9 (AAV9))
[2] = molecular target: AAV5 (adeno-associated virus serotype 5 (AAV5))
[3] = molecular target: AAV8 (adeno-associated virus serotype 8 (AAV8))

Measured: binding

B1: A4-C1 (VHH)
chain: VQLQESGGGLVQPGGSLRLSCAASGSGFSINTMGWYRQAPGKQRELVATVTRDGSTNYADFVKGRFTISRDNAKNTVYLQMNSLRPEDTAVYYCHLDEVRESSWTTSNLWGQGTQVTVSSGGGGSGGGGSGGGGSVQLQESGGGLVQPGGSLRLSCAASGSGFSINTMGWYRQAPGKQRELVATVTRDGSTNYADFVKGRFTISRDNAKNTVYLQMNSLRPEDTAVYYCHLDEVRESSWTTSNLWGQGTQVTVSSGGGGSGGGGSGGGGSVQLQESGGGLVQPGGSLRLSCAASGSGFSINTMGWYRQAPGKQRELVATVTRDGSTNYADFVKGRFTISRDNAKNTVYLQMNSLRPEDTAVYYCHLDEVRESSWTTSNLWGQGTQVTVSS
binds: [1] | [2] | [3]

B2: A4-B1 (VHH)
chain: VQLQESGGGLVQPGGSLRLSCAASGSIFSINLMGWYRQAPGKQRELVATITRGGNTNYAGSVKGRFTISRDNAKNTVYLQMNSLRPEDTAVYYCHVDEVRQSSWTTSNLWGQGTQVTVSSGGGGSGGGGSGGGGSVQLQESGGGLVQPGGSLRLSCAASGSIFSINLMGWYRQAPGKQRELVATITRGGNTNYAGSVKGRFTISRDNAKNTVYLQMNSLRPEDTAVYYCHVDEVRQSSWTTSNLWGQGTQVTVSS
binds: [1] | [2] | [3]

B3: A4-C3 (bispecific antibody)
chain: VQLQESGGGLVQPGGSLRLSCAASGSIFSINLMGWYRQAPGKQRELVATITRGGNTNYAGSVKGRFTISRDNAKNTVYLQMNSLRPEDTAVYYCHVDEVRQSSWTTSNLWGQGTQVTVSSGGGGSGGGGSGGGGSVQLQESGGGLVQPGGSLRLSCAASGSIFSINLMGWYRQAPGKQRELVATITRGGNTNYAGSVKGRFTISRDNAKNTVYLQMNSLRPEDTAVYYCHVDEVRQSSWTTSNLWGQGTQVTVSSGGGGSGGGGSGGGGSVQLQESGGGLVQPGGSLRLSCAASGSNFRINTMGWYRQAPGKQRELVATVTRGGSTNYADSVKGRFTISRDNPKDTVYLQMNSLRPEDTAVYYCHVDEVRESSWTTSNLWGQGTQVTVSS
binds: [1] | [2] | [3]

B4: A4-C7 (bispecific antibody)
chain: VQLQESGGGLVQPGGSLRLSCAASGSNFSINTMGWYRQAPGKQRELVATVTRGGDTNYADSVKGRFTISRDNAKNTVYLQMNSLRPEDTAVYYCHVDEIRESSWTTSNLWGQGTQVTVSSGGGGSGGGGSGGGGSVQLQESGGGLVQPGGSLRLSCAASGSNFRINTMGWYRQAPGKQRELVAPVTRGGSTNYADSVKGRFTISRDNAKNTVYLQMNSLRPEDTAVYYCHVDEVRESSWTTSNLWGQGTQVTVSSGGGGSGGGGSGGGGSVQLQESGGGLVQPGGSLRLSCAASGSSFTINTMGWYRQAPGKQRELVAAVTRGGSTNYAGSVKGRFTISRDNAKNTIYLQMNSLRPEDTAVYYCHVDEIRQSSWTTSNLWGQGTQVTVSS
binds: [1] | [2] | [3]

B5: A4-C5 (bispecific antibody)
chain: VQLQESGGGLVQPGGSLRLSCAASGSNFRINTMGWYRQAPGKQRELVATVTRGGSTNYADSVKGRFTISRDNPKNTVYLQMNSLRPEDTAVYYCHVDEVRESSWTTSNLWGQGTQVTVSSGGGGSGGGGSGGGGSVQLQESGGGLVQPGGSLRLSCAASGSNFSINTMGWYRQAPGKQRELVATVTRGGDTNYADSVKGRFTISRDNAKNTVYLQMNSLRPEDTAVYYCHVDEIRESSWTTSNLWGQGTQVTVSSGGGGSGGGGSGGGGSVQLQESGGGLVQPGGSLRLSCAASGSNFRINTMGWYRQAPGKQRELVATVTRGGSTNYADSVKGRFTISRDNPKNTVYLQMNSLRPEDTAVYYCHVDEVRESSWTTSNLWGQGTQVTVSS
binds: [1] | [2] | [3]

B6: A4-C6 (bispecific antibody)
chain: VQLQESGGGLVQPGGSLRLSCAASGSNFRINTMGWYRQAPGKQRELVAPVTRGGSTNYADSVKGRFTISRDNAKNTVYLQMNSLRPEDTAVYYCHVDEVRESSWTTSNLWGQGTQVTVSSGGGGSGGGGSGGGGSVQLQESGGGLVQPGGSLRLSCAASGSNFSINTMGWYRQAPGKQRELVAALTRGGSTNYADSVKGRFTISRDNAKNTVYLQMNSLRPEDTAVYYCHVDEVRESSWTTSNLWGQGTQVTVSSGGGGSGGGGSGGGGSVQLQESGGGLVQPGGSLRLSCAASGSNFSINTMGWYRQAPGKQRELVATVTRGGDTNYADSVKGRFTISRDNAKNTVYLQMNSLRPEDTAVYYCHVDEIRESSWTTSNLWGQGTQVTVSS
binds: [1] | [2] | [3]

B7: A4-C9 (bispecific antibody)
chain: VQLQESGGGLVQPGGSLRLSCAASGSNFSINTMGWYRQAPGKQRELVATVTRGGDTNYADSVKGRFTISRDNAKNTVYLQMNSLRPEDTAVYYCHVDEIRESSWTTSNLWGQGTQVTVSSGGGGSGGGGSGGGGSVQLQESGGGLVQPGGSLRLSCAASGSNFSINTMGWYRQAPGKQRELVAALTRGGSTNYADSVKGRFTISRDNAKNTVYLQMNSLRPEDTAVYYCHVDEVRESSWTTSNLWGQGTQVTVSSGGGGSGGGGSGGGGSVQLQESGGGLVQPGGSLRLSCAASGSNFRINTMGWYRQAPGKQRELVAPVTRGGSTNYADSVKGRFTISRDNAKNTVYLQMNSLRPEDTAVYYCHVDEVRESSWTTSNLWGQGTQVTVSS
binds: [1] | [2] | [3]

B8: A4-C8 (bispecific antibody)
chain: VQLQESGGGLVQPGGSLRLSCAASGSNFRINTMGWYRQAPGKQRELVAPVTRGGSTNYADSVKGRFTISRDNAKNTVYLQMNSLRPEDTAVYYCHVDEVRESSWTTSNLWGQGTQVTVSSGGGGSGGGGSGGGGSVQLQESGGGLVQPGGSLRLSCAASGSNFSINTMGWYRQAPGKQRELVATVTRGGDTNYADSVKGRFTISRDNAKNTVYLQMNSLRPEDTAVYYCHVDEIRESSWTTSNLWGQGTQVTVSSGGGGSGGGGSGGGGSVQLQESGGGLVQPGGSLRLSCAASGSNFSINTMGWYRQAPGKQRELVAALTRGGSTNYADSVKGRFTISRDNAKNTVYLQMNSLRPEDTAVYYCHVDEVRESSWTTSNLWGQGTQVTVSS
binds: [1] | [2] | [3]

B9: A4-B3 (VHH)
chain: VQLVESGGGLVQPGGSLRLSCAASGRSFSINTMGWFRQAPGKGLEAVAIVTRGGSTYYADSVKGRFTISRDNSKNTLYLQMNSLRAEDTAVYYCHIDEVRQSSWTTSNIWGQGTLVTVSSGGGGSGGGGSGGGGSVQLVESGGGLVQPGGSLRLSCAASGRSFSINTMGWFRQAPGKGLEAVAIVTRGGSTYYADSVKGRFTISRDNSKNTLYLQMNSLRAEDTAVYYCHIDEVRQSSWTTSNIWGQGTLVTVSS
binds: [1] | [2] | [3]

B10: A4-B4 (bispecific antibody)
chain: VQLVESGGGLVQPGGSLRLSCAASGRSFSINTMGWFRQAPGKGLEAVAIVTRGGSTYYADSVKGRFTISRDNSKNTLYLQMNSLRAEDTAVYYCHIDEVRQSSWTTSNIWGQGTLVTVSSGGGGSGGGGSGGGGSVQLVESGGGLVQPGGSLRLSCAASGSIFSINLMGWFRQAPGKGLELVAIITPGGNTYYADSVKGRFTISRDNSKNTVYLQMNSLRAEDTAVYYCHVDEVRQSSWTTSNLWGQGTLVTVSS
binds: [1] | [2] | [3]

B11: A4-C2 (VHH)
chain: VQLQESGGGLVQPGGSLRLSCAASGSAFSINTMGWYRQAPGKQRELVASVTPGGSTNYADSVKGRFTISRDNAKNTIYLQMNSLRPEDTAVYYCHLDEVRESSWTTSNLWGQGTQVTVSSGGGGSGGGGSGGGGSVQLQESGGGLVQPGGSLRLSCAASGSAFSINTMGWYRQAPGKQRELVASVTPGGSTNYADSVKGRFTISRDNAKNTIYLQMNSLRPEDTAVYYCHLDEVRESSWTTSNLWGQGTQVTVSSGGGGSGGGGSGGGGSVQLQESGGGLVQPGGSLRLSCAASGSAFSINTMGWYRQAPGKQRELVASVTPGGSTNYADSVKGRFTISRDNAKNTIYLQMNSLRPEDTAVYYCHLDEVRESSWTTSNLWGQGTQVTVSS
binds: [1] | [2] | [3]

B12: A4-B2 (bispecific antibody)
chain: VQLQESGGGLVQAGGSLRLSCAASGSRFSINTMGWYRQAPGKQREFVATVTRGGNTNYAESVKGRFTISRDNAKNTVYLQMNSLRPEDTAVYYCHVDEVRDSSWTTSNIWGQGTQVTVSSGGGGSGGGGSGGGGSVQLQESGGGLVQAGGSLRLSCAASGSTFSINTMGWYRQAPGKQRELVATITRGGNTNYADSVKGRFTISRDNAKNTVYLQMNSLRPEDTAVYYCHVDEVRQSSWTTSNLWGQGTQVTVSS
binds: [1] | [2] | [3]

B13: A4-C4 (bispecific antibody)
chain: VQLQESGGGLVQAGGSLRLSCAASGSRFSINTMGWYRQAPGKQREFVATVTRGGNTNYAESVKGRFTISRDNAKNTVYLQMNSLRPEDTAVYYCHVDEVRDSSWTTSNIWGQGTQVTVSSGGGGSGGGGSGGGGSVQLQESGGGLVQAGGSLRLSCAASGSRFSINTMGWYRQAPGKQREFVATVTRGGNTNYAESVKGRFTISRDNAKNTVYLQMNSLRPEDTAVYYCHVDEVRDSSWTTSNIWGQGTQVTVSSGGGGSGGGGSGGGGSVQLQESGGGLVQPGGSLRLSCAASGSNFRINTMGWYRQAPGKQRELVATVTRGGSTNYADSVKGRFTISRDNPKDTVYLQMNSLRPEDTAVYYCHVDEVRESSWTTSNLWGQGTQVTVSS
binds: [1] | [2] | [3]
